Test results taken from article doi:10.1101/2025.01.15.633117.
These are yes or no findings as the source states them, for the method shown. Binding seen in cells or lysates may run through a third protein. Some results given as binding are weak or reduced against the parent protein; the word gives no strength. For some of these results: Sequences can lack the tags named with a protein.

Sequences of proteins named here, by UniProt entry; tags and fusion partners are left off. Residues count along the entry.
UniProt P29317, residues 24-976: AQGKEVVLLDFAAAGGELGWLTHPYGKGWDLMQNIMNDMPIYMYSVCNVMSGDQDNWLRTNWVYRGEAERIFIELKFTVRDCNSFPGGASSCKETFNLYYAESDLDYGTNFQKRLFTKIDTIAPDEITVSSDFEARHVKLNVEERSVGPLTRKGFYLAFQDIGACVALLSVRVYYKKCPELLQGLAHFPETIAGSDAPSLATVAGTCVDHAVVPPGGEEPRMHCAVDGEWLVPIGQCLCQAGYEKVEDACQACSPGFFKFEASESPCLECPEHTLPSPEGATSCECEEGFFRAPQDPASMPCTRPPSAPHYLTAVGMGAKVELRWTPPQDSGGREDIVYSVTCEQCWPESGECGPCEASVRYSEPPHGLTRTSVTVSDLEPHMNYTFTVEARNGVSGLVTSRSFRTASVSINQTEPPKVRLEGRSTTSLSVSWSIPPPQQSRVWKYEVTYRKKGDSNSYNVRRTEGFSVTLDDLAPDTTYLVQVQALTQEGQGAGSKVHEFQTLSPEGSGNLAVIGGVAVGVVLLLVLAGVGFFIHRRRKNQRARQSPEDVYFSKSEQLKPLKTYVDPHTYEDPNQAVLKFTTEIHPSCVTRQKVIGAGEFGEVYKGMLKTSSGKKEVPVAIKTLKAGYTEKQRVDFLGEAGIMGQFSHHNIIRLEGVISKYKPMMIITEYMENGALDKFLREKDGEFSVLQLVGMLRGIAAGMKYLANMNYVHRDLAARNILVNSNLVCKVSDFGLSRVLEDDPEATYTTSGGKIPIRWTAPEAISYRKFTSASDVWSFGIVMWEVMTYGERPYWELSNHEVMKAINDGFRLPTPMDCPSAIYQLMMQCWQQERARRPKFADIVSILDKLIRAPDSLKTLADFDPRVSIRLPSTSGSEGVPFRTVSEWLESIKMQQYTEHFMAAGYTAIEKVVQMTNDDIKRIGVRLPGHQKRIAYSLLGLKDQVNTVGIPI
UniProt Q01974, residues 34-943: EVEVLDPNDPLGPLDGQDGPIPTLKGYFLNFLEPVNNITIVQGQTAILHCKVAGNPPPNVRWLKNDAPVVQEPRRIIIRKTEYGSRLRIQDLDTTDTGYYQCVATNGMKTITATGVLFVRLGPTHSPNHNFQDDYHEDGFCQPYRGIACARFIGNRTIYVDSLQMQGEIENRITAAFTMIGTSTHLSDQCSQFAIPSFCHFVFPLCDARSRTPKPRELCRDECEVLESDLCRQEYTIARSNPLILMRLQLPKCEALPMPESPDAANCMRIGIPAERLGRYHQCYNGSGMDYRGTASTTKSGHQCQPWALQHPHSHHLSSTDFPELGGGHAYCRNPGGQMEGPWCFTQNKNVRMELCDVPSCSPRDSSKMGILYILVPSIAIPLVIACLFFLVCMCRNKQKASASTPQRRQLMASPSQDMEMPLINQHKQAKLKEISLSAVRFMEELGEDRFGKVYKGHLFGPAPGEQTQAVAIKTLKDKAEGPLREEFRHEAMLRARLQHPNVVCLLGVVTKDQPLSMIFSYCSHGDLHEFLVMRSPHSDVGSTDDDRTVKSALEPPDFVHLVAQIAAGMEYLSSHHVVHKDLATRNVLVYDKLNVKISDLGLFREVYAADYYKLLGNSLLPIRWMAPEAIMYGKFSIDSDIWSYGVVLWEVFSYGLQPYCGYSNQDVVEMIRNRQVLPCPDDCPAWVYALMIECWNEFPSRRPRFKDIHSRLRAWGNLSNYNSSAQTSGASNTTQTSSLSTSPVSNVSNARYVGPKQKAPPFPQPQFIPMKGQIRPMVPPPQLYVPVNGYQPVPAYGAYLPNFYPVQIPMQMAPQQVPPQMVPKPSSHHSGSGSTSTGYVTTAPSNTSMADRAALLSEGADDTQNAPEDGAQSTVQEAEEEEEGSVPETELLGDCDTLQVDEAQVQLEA

T1: HA-tagged RAI14 (human) (UniProt Q9P0K7)
T1 sequence: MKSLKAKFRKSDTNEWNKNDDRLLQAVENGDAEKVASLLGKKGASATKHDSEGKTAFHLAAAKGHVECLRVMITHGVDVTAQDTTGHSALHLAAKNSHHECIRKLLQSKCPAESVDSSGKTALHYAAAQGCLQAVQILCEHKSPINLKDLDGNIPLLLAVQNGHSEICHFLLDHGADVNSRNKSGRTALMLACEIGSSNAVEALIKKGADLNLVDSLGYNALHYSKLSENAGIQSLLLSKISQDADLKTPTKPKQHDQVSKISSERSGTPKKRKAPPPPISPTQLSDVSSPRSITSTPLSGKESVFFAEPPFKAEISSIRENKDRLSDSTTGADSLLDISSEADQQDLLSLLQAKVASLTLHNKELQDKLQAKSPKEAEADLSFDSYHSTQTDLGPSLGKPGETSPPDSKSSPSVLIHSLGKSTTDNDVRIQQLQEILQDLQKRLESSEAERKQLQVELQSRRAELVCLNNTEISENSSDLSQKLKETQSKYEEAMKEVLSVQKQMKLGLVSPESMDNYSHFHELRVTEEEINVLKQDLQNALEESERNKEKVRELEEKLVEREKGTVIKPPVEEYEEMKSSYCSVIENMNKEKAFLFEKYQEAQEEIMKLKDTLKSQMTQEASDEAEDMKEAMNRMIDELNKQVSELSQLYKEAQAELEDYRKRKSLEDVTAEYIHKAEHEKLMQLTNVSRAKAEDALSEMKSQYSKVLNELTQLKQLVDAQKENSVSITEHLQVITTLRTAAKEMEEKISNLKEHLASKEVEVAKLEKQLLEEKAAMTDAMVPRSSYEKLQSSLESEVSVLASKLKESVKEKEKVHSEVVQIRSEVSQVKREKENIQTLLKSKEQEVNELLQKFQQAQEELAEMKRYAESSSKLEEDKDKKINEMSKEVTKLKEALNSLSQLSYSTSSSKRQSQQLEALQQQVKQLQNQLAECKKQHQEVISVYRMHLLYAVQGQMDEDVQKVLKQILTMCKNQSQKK

T2: HA-tagged PHACTR4 (human) (UniProt Q8IZ21)
T2 sequence: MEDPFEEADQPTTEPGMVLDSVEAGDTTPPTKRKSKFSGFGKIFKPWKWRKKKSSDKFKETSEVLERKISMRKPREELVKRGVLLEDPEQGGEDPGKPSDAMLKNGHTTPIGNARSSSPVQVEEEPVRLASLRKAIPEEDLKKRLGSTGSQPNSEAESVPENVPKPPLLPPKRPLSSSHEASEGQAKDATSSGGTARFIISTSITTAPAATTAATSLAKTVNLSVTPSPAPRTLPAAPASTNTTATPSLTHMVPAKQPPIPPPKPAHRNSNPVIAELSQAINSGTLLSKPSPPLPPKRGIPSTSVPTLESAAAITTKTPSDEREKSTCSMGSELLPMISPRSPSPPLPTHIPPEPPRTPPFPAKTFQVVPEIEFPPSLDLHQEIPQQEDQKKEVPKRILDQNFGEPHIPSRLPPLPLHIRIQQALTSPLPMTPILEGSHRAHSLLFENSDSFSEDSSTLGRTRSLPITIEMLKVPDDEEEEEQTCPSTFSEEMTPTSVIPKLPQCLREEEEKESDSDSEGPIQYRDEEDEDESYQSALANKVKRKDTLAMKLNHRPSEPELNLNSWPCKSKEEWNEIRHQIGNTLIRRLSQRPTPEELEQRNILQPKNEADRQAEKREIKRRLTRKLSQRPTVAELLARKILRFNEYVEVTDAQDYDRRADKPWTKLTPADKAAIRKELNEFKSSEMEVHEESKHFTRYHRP

B1: VANGL1 (protein, UniProt Q8TAA9 1-524)
chain: MDTESTYSGYSYYSSHSKKSHRQGERTRERHKSPRNKDGRGSEKSVTIQPPTGEPLLGNDSTRTEEVQDDNWGETTTAITGTSEHSISQEDIARISKDMEDSVGLDCKRYLGLTVASFLGLLVFLTPIAFILLPPILWRDELEPCGTICEGLFISMAFKLLILLIGTWALFFRKRRADMPRVFVFRALLLVLIFLFVVSYWLFYGVRILDSRDRNYQGIVQYAVSLVDALLFIHYLAIVLLELRQLQPMFTLQVVRSTDGESRFYSLGHLSIQRAALVVLENYYKDFTIYNPNLLTASKFRAAKHMAGLKVYNVDGPSNNATGQSRAMIAAAARRRDSSHNELYYEEAEHERRVKKRKARLVVAVEEAFIHIQRLQAEEQQKAPGEVMDPREAAQAIFPSMARALQKYLRITRQQNYHSMESILQHLAFCITNGMTPKAFLERYLSAGPTLQYDKDRWLSTQWRLVSDEAVTNGLRDGIVFVLKCLDFSLVVNVKKIPFIILSEEFIDPKSHKFVLRLQSETSV

Columns and labels:
Assay in all cases: co-IP
HA-tagged RAI14 (human) = molecular target: T1, HA-tagged RAI14 (human)
[1] = molecular target: T2, HA-tagged PHACTR4 (human)
EPHA2-HA (human) = EPHA2-HA (human) (UniProt P29317)

Molecule	binding (HA-tagged RAI14 (human))	binding [1]	binding (EPHA2-HA (human))
ROR2 (endogenous) (from UniProt Q01974 34-943) (receptor)	binds	binds	binds
B1	binds		
